Laboratory results reported in the supplement of paper PMC10331698.
± gives the standard deviation of the averaged measurements. Small differences around the control level are noise.

Legend:
Test in all cases: level (log10 ratio to DMSO vehicle control); higher = higher biomarker level / cell amount than vehicle control
[1] = compound: OCC(F)(F)C(F)(F)C(F)(F)C(F)(F)C(F)(F)C(F)(F)F [6:1 Fluorotelomer alcohol] (in DMSO); conditions: 2200 nM
Protocol: (§1)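 BioMAP Diversity Plus panel of 12 human primary cell co-culture systems (3C, 4H, LPS, SAg, BT, BF4T, BE3C, CASM3C, HDF3CGF, KF3CT, MyoF, Mphg). Compounds were added 1 h before stimulation and left for 24 h (MyoF 48 h; BT 72 h for soluble read-outs or 6 d for IgG). Biomarkers were read by ELISA, cytotoxicity by SRB, PBMC viability and proliferation by Alamar Blue. Each well value was divided by the mean of 8 DMSO control wells on the same plate and log10 transformed; duplicate blinded samples were tested at 4 concentrations.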

[2] = compound: O=C(O)C(F)(F)C(F)(F)C(F)(F)C(F)(F)C(F)(F)F [Perfluorohexanoic acid] (in DMSO)
Protocol: as §1

[3] = compound: C=C(C)C(=O)OCCC(F)(F)C(F)(F)C(F)(F)C(F)(F)C(F)(F)C(F)(F)F [6:2 Fluorotelomer methacrylate] (in DMSO); conditions: 2200 nM
Protocol: as §1

[4] = compound: O=C(O)C(F)(OC(F)(F)C(F)(OC(F)(F)C(F)(OC(F)(F)C(F)(F)C(F)(F)F)C(F)(F)F)C(F)(F)F)C(F)(F)F [Perfluoro-(2,5,8-trimethyl-3,6,9-trioxadodecanoic)acid] (in DMSO); conditions: 370 nM
Protocol: as §1

[5] = compound: FC(F)(F)C(F)(F)CNCC(F)(F)C(F)(F)F [Bis(1H,1H-perfluoropropyl)amine] (in DMSO); conditions: 2200 nM
Protocol: as §1

[6] = compound: FC(F)(F)C(F)(F)C(F)(F)C(F)(F)CCI [1H,1H,2H,2H-Perfluorohexyl iodide] (in DMSO); conditions: 2200 nM
Protocol: as §1

[7] = compound: OCC(F)(F)OC(F)(F)C(F)(F)OC(F)(F)CO [1H,1H,8H,8H-Perfluoro-3,6-dioxaoctane-1,8-diol] (in DMSO); conditions: 2200 nM
Protocol: as §1

[8] = compound: O=C(O)C(F)(OC(F)(F)C(F)(F)C(F)(F)F)C(F)(F)F [Ammonium perfluoro-2-methyl-3-oxahexanoate] (in Water)
Protocol: as §1

[9] = compound: O=C(O)C(F)(F)C(F)(F)C(F)(F)OC(F)(C(F)(F)F)C(F)(F)F [Perfluoro-4-isopropoxybutanoic acid] (in DMSO); conditions: 2200 nM
Protocol: as §1

[10] = compound: O=C(O)CCC(F)(F)C(F)(F)C(F)(F)F [3:3 Fluorotelomer carboxylic acid] (in DMSO); conditions: 2200 nM
Protocol: as §1

[11] = compound: OCC(F)(F)C(F)(F)C(F)(F)C(F)(F)C(F)(F)C(F)(F)CO [1H,1H,8H,8H-Perfluorooctane-1,8-diol] (in DMSO); conditions: 2200 nM
Protocol: as §1

[12] = compound: O=S(=O)(O)C(F)(F)C(F)(F)C(F)(F)C(F)(F)F [Perfluorobutanesulfonic acid] (in DMSO)
Protocol: as §1

[13] = compound: CNS(=O)(=O)C(F)(F)C(F)(F)C(F)(F)C(F)(F)C(F)(F)C(F)(F)C(F)(F)C(F)(F)F [N-Methylperfluorooctanesulfonamide] (in DMSO); conditions: 2200 nM
Protocol: as §1

[14] = compound: FC(F)(F)COC(OCC(F)(F)F)OCC(F)(F)F [tris(Trifluoroethoxy)methane] (in DMSO); conditions: 2200 nM
Protocol: as §1

[15] = compound: OCCCC(F)(F)C(F)(F)C(F)(F)C(F)(F)C(F)(F)C(F)(F)C(F)(F)C(F)(F)F [3-(Perfluorooctyl)propanol] (in DMSO); conditions: 2200 nM
Protocol: as §1

[16] = compound: O=C(O)C(F)(F)C(F)(F)C(F)(F)C(=O)O [Hexafluoroglutaric acid] (in DMSO)
Protocol: as §1

[17] = compound: OCC(F)(F)C(F)(F)C(F)(F)C(F)F [1H,1H,5H-Perfluoropentanol] (in DMSO); conditions: 2200 nM
Protocol: as §1

Test System	level (log10) [1]	level (log10) ([2]; 2200 nM)	level (log10) ([2]; 6700 nM)	level (log10) ([2]; 20000 nM)	level (log10) ([2]; 60000 nM)	level (log10) [3]	level (log10) [4]	level (log10) [5]	level (log10) [6]	level (log10) [7]	level (log10) ([8]; 2200 nM)	level (log10) ([8]; 6700 nM)	level (log10) ([8]; 20000 nM)	level (log10) ([8]; 60000 nM)	level (log10) [9]	level (log10) [10]	level (log10) [11]	level (log10) ([12]; 2200 nM)	level (log10) ([12]; 6700 nM)	level (log10) ([12]; 20000 nM)	level (log10) ([12]; 60000 nM)	level (log10) [13]	level (log10) [14]	level (log10) [15]	level (log10) ([16]; 2200 nM)	level (log10) ([16]; 6700 nM)	level (log10) ([16]; 20000 nM)	level (log10) ([16]; 60000 nM)	level (log10) [17]
lMphg:SRB	0.002 ± 0.0014	-0.0195 ± 0.0035	-0.019 ± 0.0085	-0.0175 ± 0.0064	-0.006 ± 0.0085	-0.012 ± 0.018	-0.0055 ± 0.0064	-0.014 ± 0.011	-0.008 ± 0.034	-0.007 ± 0.018	-0.049 ± 0.016	-0.043 ± 0.0014	-0.0435 ± 0.00071	-0.0395 ± 0.0035	0.002 ± 0.0099	-0.008 ± 0.0042	-0.0245 ± 0.00071	-0.0105 ± 0.015	0.002 ± 0.013	-0.0155 ± 0.011	-0.0155 ± 0.0064	-0.001	-0.0105 ± 0.005	-0.0005 ± 0.013	-0.015 ± 0.0071	0.0035 ± 0.00071	0.003 ± 0.0085	-0.0045 ± 0.0035	-0.0025 ± 0.0064
lMphg:SRB-Mphg	0.015 ± 0.018	0.006 ± 0.017	-0.0005 ± 0.011	0.003 ± 0.0071	0.0115 ± 0.0035	0.0175 ± 0.039	0.0215 ± 0.013	-0.019 ± 0.017	0.011 ± 0.017	0.044 ± 0.035	0 ± 0.0099	-0.0535 ± 0.036	-0.046 ± 0.041	-0.054 ± 0.041	0.004 ± 0.0099	-0.009 ± 0.17	-0.0155 ± 0.043	0.003 ± 0.013	0.01 ± 0.018	0.0045 ± 0.015	-0.0005 ± 0.012	0.015 ± 0.0042	-0.007 ± 0.028	0.0465 ± 0.0021	-0.0025 ± 0.019	-0.0075 ± 0.019	-0.0055 ± 0.005	0.0075 ± 0.022	0.0175 ± 0.054
lMphg:sIL-10	0.0085 ± 0.1	-0.041 ± 0.083	-0.0285 ± 0.0092	-0.0375 ± 0.046	-0.0945 ± 0.021	0.0765 ± 0.016	-0.004 ± 0.0057	-0.061 ± 0.021	-0.0685 ± 0.071	0.069 ± 0.023	-0.332 ± 0.037	-0.36 ± 0.035	-0.328 ± 0.018	-0.467 ± 0.13	0.0085 ± 0.0092	0.029 ± 0.061	-0.0535 ± 0.069	0.019 ± 0.1	0.043 ± 0.099	-0.0475 ± 0.032	0.0065 ± 0.049	-0.0355 ± 0.005	0.002 ± 0.0014	-0.0005 ± 0.05	-0.0405 ± 0.07	-0.0745 ± 0.037	-0.0775 ± 0.056	-0.102 ± 0.0078	-0.0205 ± 0.042
